For orientation: MIC means the least concentration at which growth counts as inhibited.

Values after ≈ are worked out from the molar mass of the structure shown.

Assay [1] deals with Escherichia coli DH5α. As to the kind of experiment: MIC assay (broth micro-dilution). Type of assay: cell-based. To be noted: Table S11, LB broth, 37 °C, 16 h, n = 2. On the procedure: (§1) All MIC assays were performed two independent times (n = 2) in 96‐well plates using a broth micro‐dilution method. The lowest concentration of that inhibited visible microbial growth was recorded as the MIC value.
(§2) For most of bacterial strains, overnight cultures were diluted 5000‐fold in LB broth. For E. faecium and S. aureus, overnight cultures were diluted 1000‐ and 10000‐fold in LB broth, respectively. 100 µL of diluted cells was mixed with 100 µL of LB broth containing each peptide ranging from 64 to 0.125 µg mL^−1 at 2‐fold serial dilutions.
(In general: In broth dilution the organism is exposed to a series of concentrations in liquid medium.)

Assay [2] deals with B. subtilis ATCC 23857. The assay can be described thus: MIC assay (broth micro-dilution). Format: cell-based. To be noted: Bacillus subtilis, ATCC23857, 16 h, read-out: MIC Bacllussubtilis ATCC 23857. On the procedure:
as §1, §2

`C[C@@H](O)[C@H]1C(=O)N2C(C(=O)O)=C(S[C@@H]3CN[C@H](C(=O)N(C)C)C3)[C@H](C)[C@H]12` [Meropenem, reference compound]: the minimum inhibitory concentration (MIC) in assay [1] was < 0.125 µg/mL.
On to `CN[C@H](CC(C)C)C(=O)N[C@H]1C(=O)N[C@@H](CC(N)=O)C(=O)N[C@H]2C(=O)N[C@H]3C(=O)N[C@H](C(=O)N[C@H](C(=O)O)c4cc(O)cc(O)c4-c4cc3ccc4O)[C@H](O)c3ccc(c(Cl)c3)Oc3cc2cc(c3O[C@@H]2O[C@H](CO)[C@@H](O)[C@H](O)[C@H]2O[C@H]2C[C@](C)(N)[C@H](O)[C@H](C)O2)Oc2ccc(cc2Cl)[C@H]1O` [Vancomycin, reference compound], for which the minimal inhibitory concentration (MIC) in assay [2] is 0.25 µg/mL (≈ 0.173 µM).

Values taken from article PMC12677607, “Identification of a Pair of Linear or Cyclic Naturally Inspired Bifunctional Lipopeptide Antibiotics That Overcome Antimicrobial Resistance” (Advanced Science, 2025).
